The source of these data is PMC9684302.

The chains behind the UniProt entries cited, without tags or fusion partners.
UniProt Q16637: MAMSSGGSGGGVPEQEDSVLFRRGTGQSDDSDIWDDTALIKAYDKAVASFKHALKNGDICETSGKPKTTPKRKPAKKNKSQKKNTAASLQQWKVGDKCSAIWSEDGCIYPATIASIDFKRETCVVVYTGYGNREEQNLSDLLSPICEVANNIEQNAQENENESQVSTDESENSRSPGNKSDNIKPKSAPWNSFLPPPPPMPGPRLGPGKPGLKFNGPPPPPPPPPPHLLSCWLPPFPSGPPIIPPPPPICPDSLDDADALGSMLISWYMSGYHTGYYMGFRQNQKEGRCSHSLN

Results are given in words; binding and its absence hold for the method and conditions named. Binding seen in cells or lysates may run through a third protein. Here binding means that the protein was enriched with, or labelled near, the bait; the list need not be complete. For some assays here: A no says only that the protein was not detected with the bait. For some assays here: Where a sequence is shown, tags or fusion partners need not be part of it.

For assay [1], the target named is MYC-BirA-SMN (human) (UniProt Q16637). Briefly: proximity labelling; BioID in stably transduced HEK293T (BirA, BirA-SMN, BirA-SMN Y109C), streptavidin-Sepharose, label-free quantitative mass spectrometry, triplicate; BirA-SMN compared with BirA alone and with BirA-SMN Y109C.
For assay [2], the target named is MYC-BirA-SMN (human), Q16637. Described as above. The settings on record: remark: other sources report otherwise.
For assay [3], the target named is MYC-BirA-SMN (human) (UniProt Q16637). Briefly: proximity labelling; BioID: FLAG-tagged candidates co-expressed with MYC-BirA or MYC-BirA-SMN in HEK293T, doxycycline and biotin; biotinylated proteins purified on streptavidin-Sepharose, immunoblot. For orientation: A western blot detects proteins with antibodies after separation by electrophoresis.

B1: PATL1 (protein, UniProt Q86TB9 1-770)
chain: MFRYESLEDCPLDEDEDAFQGLGEEDEEIDQFNDDTFGSGAVDDDWQEAHERLAELEEKLPVAVNEQTGNGERDEMDLLGDHEENLAERLSKMVIENELEDPAIMRAVQTRPVLQPQPGSLNSSIWDGSEVLRRIRGPLLAQEMPTVSVLEYALPQRPPQGPEDDRDLSERALPRRSTSPIIGSPPVRAVPIGTPPKQMAVPSFTQQILCPKPVHVRPPMPPRYPAPYGERMSPNQLCSVPNSSLLGHPFPPSVPPVLSPLQRAQLLGGAQLQPGRMSPSQFARVPGFVGSPLAAMNPKLLQGRVGQMLPPAPGFRAFFSAPPSATPPPQQHPPGPGPHLQNLRSQAPMFRPDTTHLHPQHRRLLHQRQQQNRSQHRNLNGAGDRGSHRSSHQDHLRKDPYANLMLQREKDWVSKIQMMQLQSTDPYLDDFYYQNYFEKLEKLSAAEEIQGDGPKKERTKLITPQVAKLEHAYKPVQFEGSLGKLTVSSVNNPRKMIDAVVTSRSEDDETKEKQVRDKRRKTLVIIEKTYSLLLDVEDYERRYLLSLEEERPALMDDRKHKICSMYDNLRGKLPGQERPSDDHFVQIMCIRKGKRMVARILPFLSTEQAADILMTTARNLPFLIKKDAQDEVLPCLLSPFSLLLYHLPSVSITSLLRQLMNLPQSAATPALSNPHLTAVLQNKFGLSLLLILLSRGEDLQSSDPATESTQNNQWTEVMFMATRELLRIPQAALAKPISIPTNLVSLFSRYVDRQKLNLLETKLQLVQGIR
B1: in the assay with MYC-BirA-SMN (human) [1], the binding entry was “binds”.

B2: GEMIN4, P57678 1-1058 (protein)
chain: MDLGPLNICEEMTILHGGFLLAEQLFHPKALAELTKSDWERVGRPIVEALREISSAAAHSQPFAWKKKALIIIWAKVLQPHPVTPSDTETRWQEDLFFSVGNMIPTINHTILFELLKSLEASGLFIQLLMALPTTICHAELERFLEHVTVDTSAEDVAFFLDVWWEVMKHKGHPQDPLLSQFSAMAHKYLPALDEFPHPPKRLRSDPDACPTMPLLAMLLRGLTQIQSRILGPGRKCCALANLADMLTVFALTEDDPQEVSATVYLDKLATVISVWNSDTQNPYHQQALAEKVKEAERDVSLTSLAKLPSETIFVGCEFLHHLLREWGEELQAVLRSSQGTSYDSYRLCDSLTSFSQNATLYLNRTSLSKEDRQVVSELAECVRDFLRKTSTVLKNRALEDITASIAMAVIQQKMDRHMEVCYIFASEKKWAFSDEWVACLGSNRALFRQPDLVLRLLETVIDVSTADRAIPESQIRQVIHLILECYADLSLPGKNKVLAGILRSWGRKGLSEKLLAYVEGFQEDLNTTFNQLTQSASEQGLAKAVASVARLVIVHPEVTVKKMCSLAVVNLGTHKFLAQILTAFPALRFVEEQGPNSSATFMVSCLKETVWMKFSTPKEEKQFLELLNCLMSPVKPQGIPVAALLEPDEVLKEFVLPFLRLDVEEVDLSLRIFIQTLEANACREEYWLQTCSPFPLLFSLCQLLDRFSKYWQLPKEKRCLSLDRKDLAIHILELLCEIVSANAETFSPDVWIKSLSWLHRKLEQLDWTVGLRLKSFFEGHFKCEVPATLFEICKLSEDEWTSQAHPGYGAGTGLLAWMECCCVSSGISERMLSLLVVDVGNPEEVRLFSKGFLVALVQVMPWCSPQEWQRLHQLTRRLLEKQLLHVPYSLEYIQFVPLLNLKPFAQELQLSVLFLRTFQFLCSHSCRDWLPLEGWNHVVKLLCGSLTRLLDSVRAIQAAGPWVQGPEQDLTQEALFVYTQVFCHALHIMAMLHPEVCEPLYVLALETLTCYETLSKTNPSVSSLLQRAHEQRFLKSIAEGIGPEERRQTLLQKMSSF
As to B2, the binding entry in assay [2] is on record as “binds”.

B3: FLAG-CSRP2 (protein, UniProt Q16527 1-193)
chain: MPVWGGGNKCGACGRTVYHAEEVQCDGRSFHRCCFLCMVCRKNLDSTTVAIHDEEIYCKSCYGKKYGPKGYGYGQGAGTLNMDRGERLGIKPESVQPHRPTTNPNTSKFAQKYGGAEKCSRCGDSVYAAEKIIGAGKPWHKNCFRCAKCGKSLESTTLTEKEGEIYCKGCYAKNFGPKGFGYGQGAGALVHAQ
As for B3, the binding result in the assay with MYC-BirA-SMN (human) [3] is given as “no binding”.

B4: GIGYF2 (protein, UniProt Q6Y7W6 1-1299)
chain: MAAETQTLNFGPEWLRALSSGGSITSPPLSPALPKYKLADYRYGREEMLALFLKDNKIPSDLLDKEFLPILQEEPLPPLALVPFTEEEQRNFSMSVNSAAVLRLTGRGGGGTVVGAPRGRSSSRGRGRGRGECGFYQRSFDEVEGVFGRGGGREMHRSQSWEERGDRRFEKPGRKDVGRPNFEEGGPTSVGRKHEFIRSESENWRIFREEQNGEDEDGGWRLAGSRRDGERWRPHSPDGPRSAGWREHMERRRRFEFDFRDRDDERGYRRVRSGSGSIDDDRDSLPEWCLEDAEEEMGTFDSSGAFLSLKKVQKEPIPEEQEMDFRPVDEGEECSDSEGSHNEEAKEPDKTNKKEGEKTDRVGVEASEETPQTSSSSARPGTPSDHQSQEASQFERKDEPKTEQTEKAEEETRMENSLPAKVPSRGDEMVADVQQPLSQIPSDTASPLLILPPPVPNPSPTLRPVETPVVGAPGMGSVSTEPDDEEGLKHLEQQAEKMVAYLQDSALDDERLASKLQEHRAKGVSIPLMHEAMQKWYYKDPQGEIQGPFNNQEMAEWFQAGYFTMSLLVKRACDESFQPLGDIMKMWGRVPFSPGPAPPPHMGELDQERLTRQQELTALYQMQHLQYQQFLIQQQYAQVLAQQQKAALSSQQQQQLALLLQQFQTLKMRISDQNIIPSVTRSVSVPDTGSIWELQPTASQPTVWEGGSVWDLPLDTTTPGPALEQLQQLEKAKAAKLEQERREAEMRAKREEEERKRQEELRRQQEEILRRQQEEERKRREEEELARRKQEEALRRQREQEIALRRQREEEERQQQEEALRRLEERRREEEERRKQEELLRKQEEEAAKWAREEEEAQRRLEENRLRMEEEAARLRHEEEERKRKELEVQRQKELMRQRQQQQEALRRLQQQQQQQQLAQMKLPSSSTWGQQSNTTACQSQATLSLAEIQKLEEERERQLREEQRRQQRELMKALQQQQQQQQQKLSGWGNVSKPSGTTKSLLEIQQEEARQMQKQQQQQQQHQQPNRARNNTHSNLHTSIGNSVWGSINTGPPNQWASDLVSSIWSNADTKNSNMGFWDDAVKEVGPRNSTNKNKNNASLSKSVGVSNRQNKKVEEEEKLLKLFQGVNKAQDGFTQWCEQMLHALNTANNLDVPTFVSFLKEVESPYEVHDYIRAYLGDTSEAKEFAKQFLERRAKQKANQQRQQQQLPQQQQQQPPQQPPQQPQQQDSVWGMNHSTLHSVFQTNQSNNQQSNFEAVQSGKKKKKQKMVRADPSLLGFSVNASSERLNMGEIETLDDY
With B4, the binding entry with MYC-BirA-SMN (human) [1] is reported as “binds”.

B5: FIBRILLARIN (protein, UniProt P22087 1-321)
chain: MKPGFSPRGGGFGGRGGFGDRGGRGGRGGFGGGRGRGGGFRGRGRGGGGGGGGGGGGGRGGGGFHSGGNRGRGRGGKRGNQSGKNVMVEPHRHEGVFICRGKEDALVTKNLVPGESVYGEKRVSISEGDDKIEYRAWNPFRSKLAAAILGGVDQIHIKPGAKVLYLGAASGTTVSHVSDIVGPDGLVYAVEFSHRSGRDLINLAKKRTNIIPVIEDARHPHKYRMLIAMVDVIFADVAQPDQTRIVALNAHTFLRNGGHFVISIKANCIDSTASAEAVFASEVKKMQQENMKPQEQLTLEPYERDHAVVVGVYRPPPKVKN
With B5, the binding entry with MYC-BirA-SMN (human) [1] is “binds”.

B6: ZNF598 (protein, UniProt Q86UK7 1-904)
chain: MAAAGGAEGRRAALEAAAAAAPERGGGSCVLCCGDLEATALGRCDHPVCYRCSTKMRVLCEQRYCAVCREELRQVVFGKKLPAFATIPIHQLQHEKKYDIYFADGKVYALYRQLLQHECPRCPELPPFSLFGDLEQHMRRQHELFCCRLCLQHLQIFTYERKWYSRKDLARHRMQGDPDDTSHRGHPLCKFCDERYLDNDELLKHLRRDHYFCHFCDSDGAQDYYSDYAYLREHFREKHFLCEEGRCSTEQFTHAFRTEIDLKAHRTACHSRSRAEARQNRHIDLQFSYAPRHSRRNEGVVGGEDYEEVDRYSRQGRVARAGTRGAQQSRRGSWRYKREEEDREVAAAVRASVAAQQQEEARRSEDQEEGGRPKKEEAAARGPEDPRGPRRSPRTQGEGPGPKETSTNGPVSQEAFSVTGPAAPGCVGVPGALPPPSPKLKDEDFPSLSASTSSSCSTAATPGPVGLALPYAIPARGRSAFQEEDFPALVSSVPKPGTAPTSLVSAWNSSSSSKKVAQPPLSAQATGSGQPTRKAGKGSRGGRKGGPPFTQEEEEDGGPALQELLSTRPTGSVSSTLGLASIQPSKVGKKKKVGSEKPGTTLPQPPPATCPPGALQAPEAPASRAEGPVAVVVNGHTEGPAPARSAPKEPPGLPRPLGSFPCPTPQEDFPALGGPCPPRMPPPPGFSAVVLLKGTPPPPPPGLVPPISKPPPGFSGLLPSPHPACVPSPATTTTTKAPRLLPAPRAYLVPENFRERNLQLIQSIRDFLQSDEARFSEFKSHSGEFRQGLISAAQYYKSCRDLLGENFQKVFNELLVLLPDTAKQQELLSAHTDFCNREKPLSTKSKKNKKSAWQATTQQAGLDCRVCPTCQQVLAHGDASSHQALHAARDDDFPSLQAIARIIT
Turning to B6, the binding entry with MYC-BirA-SMN (human) [1] is listed as “binds”.

B7: GEMIN8 (protein, UniProt Q9NWZ8 1-242)
chain: MAAVKASTSKATRPWYSHPVYARYWQHYHQAMAWMQSHHNAYRKAVESCFNLPWYLPSALLPQSSYDNEAAYPQSFYDHHVAWQDYPCSSSHFRRSGQHPRYSSRIQASTKEDQALSKEEEMETESDAEVECDLSNMEITEELRQYFAETERHREERRRQQQLDAERLDSYVNADHDLYCNTRRSVEAPTERPGERRQAEMKRLYGDSAAKIQAMEAAVQLSFDKHCDRKQPKYWPVIPLKF
B7: the binding result with MYC-BirA-SMN (human) [1] was “binds”.

B8: AVEN (protein, UniProt Q9NQS1 1-362)
chain: MQAERGARGGRGRRPGRGRPGGDRHSERPGAAAAVARGGGGGGGGDGGGRRGRGRGRGFRGARGGRGGGGAPRGSRREPGGWGAGASAPVEDDSDAETYGEENDEQGNYSKRKIVSNWDRYQDIEKEVNNESGESQRGTDFSVLLSSAGDSFSQFRFAEEKEWDSEASCPKQNSAFYVDSELLVRALQELPLCLRLNVAAELVQGTVPLEVPQVKPKRTDDGKGLGMQLKGPLGPGGRGPIFELKSVAAGCPVLLGKDNPSPGPSRDSQKPTSPLQSAGDHLEEELDLLLNLDAPIKEGDNILPDQTSQDLKSKEDGEVVQEEEVCAKPSVTEEKNMEPEQPSTSKNVTEEELEDWLDSMIS
With B8, in the assay with MYC-BirA-SMN (human) [1], the binding entry is reported as “binds”.
